# Part of at least one peptide drawing is inferred or uncertain, most often the ends. Peptide text beside a SMILES is read from it.
# How the values were obtained:
# human monocytes = experiment: Production of interleukin-1 receptor antagonist protein (IRAP) by human monocytes; format: cell-based; details: on molar basis, 5 ng/ml IT9302 equals 100 ng/ml IL-10
# [1] = tested on: acute pancreatitis induced in rabbits by 5% bile acid; experiment: Acute pancreatitis induced by bile acid in rabbits, human IT9302; format: in vivo, New Zealand white rabbits (Oryctolagus cuniculus); details: after 12 hours; untreated 60%
compound,measurement,setting,value
"CC[C@H](C)[C@H](NC(=O)[C@H](CCCCN)NC(=O)[C@H](CCSC)NC(=O)[C@@H](NC(=O)[C@H](CCSC)NC(=O)[C@H](Cc1ccc(O)cc1)NC(=O)[C@H](C)N)[C@@H](C)O)C(=O)N[C@@H](CCCNC(=N)N)C(=O)N[C@@H](CC(N)=O)C(=O)O [IT9302, NH2-Ala-Tyr-Met-Thr-Met-Lys-Ile-Arg-Asn-COOH] (H-AYMTMKIRN-OH)",potency relative to rhIL-10 for induction of IRAP at lower concentrations,human monocytes,comparable and approximately equal
same,mortality,[1],0%
